Experimental data: PubChem BioAssay AID1259254 (NCATS, 2017)

Screen: 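Finding genes that stop cells copying their DNA twice in one cycle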 (primary screen)
Cell system: human HCT116 colorectal cancer cells
Reagents: single siRNA against human genes
Duration: 3 days
Measurement: 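Nuclei stained with Hoechst and imaged; cell-cycle phase assigned by DNA content; G2 share scaled per plate, non-targeting siRNA 0%, GMNN siRNA 100%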
Scale: G2 robust z-score: higher = more G2 cells, more excess DNA replication
Call rule: 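Active siRNAs have a G2 robust z of 5 or more median absolute deviations over the median, which in these data means about 38% or higher of GMNN control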
Here is an unselected part of about 59,000 reagents tested. About 1,550 of all reagents (2.6%) were called active. 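G2 share is only a proxy for re-replication; each gene was hit by three separate siRNAs, and active genes were retested.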 The numbers tell different reagents against one gene apart. Not all columns of the deposit are shown. Not given: the amount of reagent.

RALYL #1: G2 robust z-score = 0.3; call = inactive
RALYL #2: G2 robust z-score = 0.467; call = inactive
RALYL #3: G2 robust z-score = -0.455; call = inactive
AKAP4 #1: G2 robust z-score = 0.182; call = inactive
AKAP4 #2: G2 robust z-score = 0.871; call = inactive
AKAP4 #3: G2 robust z-score = -0.323; call = inactive
TRIM58 #1: G2 robust z-score = -0.112; call = inactive
TRIM58 #2: G2 robust z-score = 2.62; call = inactive
TRIM58 #3: G2 robust z-score = -0.325; call = inactive
SLC25A13 #1: G2 robust z-score = -0.46; call = inactive
SLC25A13 #2: G2 robust z-score = -0.631; call = inactive
SLC25A13 #3: G2 robust z-score = 0.0794; call = inactive
ADGRG1 #1: G2 robust z-score = 1; call = inactive
ADGRG1 #2: G2 robust z-score = -1.43; call = inactive
ADGRG1 #3: G2 robust z-score = -0.114; call = inactive
NDFIP1 #1: G2 robust z-score = 3.92; call = inactive
NDFIP1 #2: G2 robust z-score = 0.266; call = inactive
NDFIP1 #3: G2 robust z-score = -0.404; call = inactive
CENPI #1: G2 robust z-score = 0.349; call = inactive
CENPI #2: G2 robust z-score = 1.29; call = inactive
CENPI #3: G2 robust z-score = 1.06; call = inactive
LRIG1 #1: G2 robust z-score = 4.5; call = inactive
LRIG1 #2: G2 robust z-score = 7.17; call = active
LRIG1 #3: G2 robust z-score = 0.849; call = inactive

In a second layout: entries from further up
CENPI #2
- G2 robust z-score: 1.29
- call: inactive

CENPI #3
- G2 robust z-score: 1.06
- call: inactive

LRIG1 #1
- G2 robust z-score: 4.5
- call: inactive

LRIG1 #2
- G2 robust z-score: 7.17
- call: active
